Assay results as given in patent US6355785B1, “Guanosine-rich oligonucleotide integrase inhibitors” (Aronex Pharmaceuticals, Inc., priority 1993, dated 2002).
Some results were stated once for a whole list of compounds, not compound by compound. For some assays here: At least one structure is not confirmed: it was looked up by name or label, or the drawing left a doubt. Some compounds share one range, which may span the group rather than tell each member.

Experiments:
Type in all cases: cell-based
HIV-1DV = assay: HIV-1 p24 production in SUP T1 cells; details: 2.5 uM; for prolonged inhibition of p24 vs untreated infected cells: after removal of drug
HIV-1IIIB = assay: Long term suppression assay, MT-4 cells; details: 4 days treatment at 100-fold over IC50
HIV-1 strain LAV = assay: HIV-1 cytopathic effect assay in MT-2 cells; details: MT-2, m.o.i. 0.01, 7 days; read-out: IC50 viral-induced cytopathic effects

Molecule | total suppression of p24 production after removal of drug (HIV-1DV) | prolonged inhibition of p24 vs untreated infected cells (HIV-1DV) [%] | suppression of viral p24 production after removal of drug (HIV-1IIIB) [days] | also measured
5′-gtggtgggtgggtgggt-3′ (GTGGTGGGTGGGTGGGT; phosphodiester, 3'-propanolamine, further chemistry not given here) [I100-15, 17 mer PD, 3′-propanolamine] | at least 7 days | > 99 | – | –
Cc1cn([C@H]2C[C@H](N=[N+]=[N-])[C@@H](CO)O2)c(=O)[nH]c1=O [AZT, 3′-azido-3′-deoxythymidine] | – | – | ≤ 3 | –
Dextran sulfate [DS5000, reference compound] | – | – | ≤ 3 | –
5′-gggtgggtgggtgggtgggtgggtgg-3′ [HIV-26ctl] | – | – | – | IC50 (HIV-1 strain LAV): 500 to 1000 nM
C1CNCCNCCCN(CCCN2CCCNCCNCCCNCC2)CCNC1 [JM2763, reference compound] | – | – | ≤ 3 | –
5′-gtggtgggtgggtgggtggtgggtggtggtgtgggtgggtggtg-3′ [I100-21] | at least 7 days | > 99 | – | –
